Data from patent US20110076234A1 (MOLMED, published 2011).

Target: Human αvβ3 integrin (purified) (human)
Assay: competitive ELISA: biotinylated FN-I5/streptavidin-peroxidase on αvβ3-coated plates

binding: binds
B1: Loop-GNGRG peptide of FN-I5 (peptide corresponding to the entire 256-271 loop of FN-I5) (peptide)
peptide: LQCISTGNGRGEWKCE

No constants are given. Whether binding was seen depends on the method and setting. Binding can be weak; no strength is given.
